{"source": "paper PMC7819943", "about": "“Rice protein-binding microarrays: a tool to detect cis-acting elements near promoter regions in rice”", "note": "Some of the results follow.", "data": [{"molecular_target": "T1, OsSMF1 (Oryza sativa, UniProt Q6ZLB0 1-436)", "T1 sequence": "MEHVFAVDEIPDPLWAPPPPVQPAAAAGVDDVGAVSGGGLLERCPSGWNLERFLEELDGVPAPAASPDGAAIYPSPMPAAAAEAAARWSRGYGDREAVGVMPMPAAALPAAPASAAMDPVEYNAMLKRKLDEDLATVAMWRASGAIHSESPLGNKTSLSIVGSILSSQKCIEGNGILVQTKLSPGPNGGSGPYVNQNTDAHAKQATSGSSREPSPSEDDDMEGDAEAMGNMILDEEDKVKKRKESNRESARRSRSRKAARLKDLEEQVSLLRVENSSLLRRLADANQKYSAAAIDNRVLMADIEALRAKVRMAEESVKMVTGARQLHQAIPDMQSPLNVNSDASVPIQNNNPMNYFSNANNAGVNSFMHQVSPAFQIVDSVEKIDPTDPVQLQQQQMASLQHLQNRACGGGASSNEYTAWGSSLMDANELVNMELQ", "assay": "protein-binding microarray (RPBM); PBS, 2% BSA, 51.3 ng/ul salmon testes DNA, 50 uM zinc acetate, 200 nM TF, 25 C, 1 h; high values mean tight binding", "details": "protein: recombinant; tags: N-terminal polyhistidine and DsRed monomer fusion (pET32a); chain copies: 2; label: CyDye5-dUTP incorporated in the synthesized complementary strand; 3' TTTTT single-stranded linker to array surface; dsDNA, one strand shown", "procedure,_shortened": "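Transcription factors, each fused N-terminally to a polyhistidine tag and DsRed, were expressed in E. coli BL21-CodonPlus and purified on Ni–NTA. A custom Agilent array was made double-stranded by primer extension with Cy5-dUTP and blocked with 2% BSA. It was incubated with 200 nM protein in PBS, 2% BSA, salmon testes DNA and 50 µM zinc acetate at 25 °C for 1 h, then washed. The binding signal is per-feature fluorescence intensity (arbitrary units) read on an Axon 4000B scanner.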", "values": [{"sequence": "TAATCATCCAAATGCAAGCTGACGAACCTGCTATTCCCAGCGGAGTCACCTAGTGCAG", "binding signal": "3340 fluorescence intensity (a.u.)"}, {"sequence": "GAAAGGCTATCCACTCATACATGTTGGTGTCAGATACTCTCGGAGTCACCTAGTGCAG", "binding signal": "4630 fluorescence intensity (a.u.)"}, {"sequence": "CTCGGTTGAGACCGACGTGTCCGCATCCTGCCGCACTACCCGGAGTCACCTAGTGCAG", "binding signal": "7270 fluorescence intensity (a.u.)"}, {"sequence": "CCATAGACTTCACTACTCATCTTGTTCGTCGTTTTAGTTGCGGAGTCACCTAGTGCAG", "binding signal": "15700 fluorescence intensity (a.u.)"}, {"sequence": "TGGCAATTGTCAAGTCAACCAGCTCATCATCCAATTGTTGCGGAGTCACCTAGTGCAG", "binding signal": "3200 fluorescence intensity (a.u.)"}, {"sequence": "TCGCCGTCCCCGTGTGTGGGCGGCCGCCTCCTGCTGCGCGCGGAGTCACCTAGTGCAG", "binding signal": "3230 fluorescence intensity (a.u.)"}, {"sequence": "GGTATCGACAATCAACACGTCCTCGAACTACCTGTAGAACCGGAGTCACCTAGTGCAG", "binding signal": "3230 fluorescence intensity (a.u.)"}, {"sequence": "CCGCCGCCGCCGCTCGATTCCAACGTCTCAACCCTGACCTCGGAGTCACCTAGTGCAG", "binding signal": "23700 fluorescence intensity (a.u.)"}, {"sequence": "AAACGAATCTAGGAATATATGTGACACATCATAGTACTACCGGAGTCACCTAGTGCAG", "binding signal": "4370 fluorescence intensity (a.u.)"}, {"sequence": "GCGCGCACGTACGCCTAAACCGAACGCACACGCACGCGCGCGGAGTCACCTAGTGCAG", "binding signal": "3640 fluorescence intensity (a.u.)"}, {"sequence": "GCCAAGCCCGAATGATTCCACCACACGCCACCGATTCGATCGGAGTCACCTAGTGCAG", "binding signal": "3770 fluorescence intensity (a.u.)"}, {"sequence": "AGGAGGGGTGGAGCTGGAGCTGGAGCTGTGCCAAACAGGCCGGAGTCACCTAGTGCAG", "binding signal": "3190 fluorescence intensity (a.u.)"}, {"sequence": "GGGAGCGATCAAGGAGAAGCTGACGGTGAGCCTAGCGGCGCGGAGTCACCTAGTGCAG", "binding signal": "3150 fluorescence intensity (a.u.)"}, {"sequence": "CCTAAACACTACGCAATTTGGCGGGTAGCTGAGTAGATTACGGAGTCACCTAGTGCAG", "binding signal": "3200 fluorescence intensity (a.u.)"}, {"sequence": "TCGGCGACCACCAACACCTATAAGTAGAGGCAGGCACCAACGGAGTCACCTAGTGCAG", "binding signal": "26300 fluorescence intensity (a.u.)"}, {"sequence": "TCAAGAAATCCACGTTTGACGAATAACCGGAATATTCGATCGGAGTCACCTAGTGCAG", "binding signal": "3660 fluorescence intensity (a.u.)"}, {"sequence": "AAATGACGTATCTATAGGAGAGACTATGATCAACGGTAACCGGAGTCACCTAGTGCAG", "binding signal": "3150 fluorescence intensity (a.u.)"}, {"sequence": "GTTTTGCGCCGCCCGCACTGCCAGCCGCTGCCACGCTGCTCGGAGTCACCTAGTGCAG", "binding signal": "3920 fluorescence intensity (a.u.)"}, {"sequence": "CTTGCCAGCAATGCATCACTGCCGGTCACCGGCTACCACGCGGAGTCACCTAGTGCAG", "binding signal": "4720 fluorescence intensity (a.u.)"}, {"sequence": "CCGCCGCCGCCGACGCCGCGGGATAGCACTGACCGGAGCGCGGAGTCACCTAGTGCAG", "binding signal": "19700 fluorescence intensity (a.u.)"}, {"sequence": "AATCATGGCGATTTGAGGGCAGGTGATCGATGACTGTGTACGGAGTCACCTAGTGCAG", "binding signal": "5020 fluorescence intensity (a.u.)"}, {"sequence": "GCACGTGTTGCGCACGGCGCACGCCGCCGCAAACTCTTTTCGGAGTCACCTAGTGCAG", "binding signal": "22000 fluorescence intensity (a.u.)"}, {"sequence": "GTCAGAGCGGGGTCAATGAACGAGCACCGCACATCATCATCGGAGTCACCTAGTGCAG", "binding signal": "4140 fluorescence intensity (a.u.)"}, {"sequence": "CAATGTAACATGGTGATTCAGCACTTCTGGTGAAGTTGTGCGGAGTCACCTAGTGCAG", "binding signal": "6000 fluorescence intensity (a.u.)"}, {"sequence": "GTTGCAACCTCCCGCCTCACCCGCCGCCATTGACGACCACCGGAGTCACCTAGTGCAG", "binding signal": "3340 fluorescence intensity (a.u.)"}, {"sequence": "CTCATTCTAAGACATGATGCTACGCGACACGATGGCACTTCGGAGTCACCTAGTGCAG", "binding signal": "4330 fluorescence intensity (a.u.)"}, {"sequence": "ACGTATATCTCTTTAAAGCAAATTTACTGCCTCCGATACGCGGAGTCACCTAGTGCAG", "binding signal": "31300 fluorescence intensity (a.u.)"}, {"sequence": "TGTACTATGTTATTAATGTACATCACACTTAAGTGATCGACGGAGTCACCTAGTGCAG", "binding signal": "21500 fluorescence intensity (a.u.)"}, {"sequence": "ATATATATATATATATATATATATGACCACCTCTCCTCCTCGGAGTCACCTAGTGCAG", "binding signal": "4400 fluorescence intensity (a.u.)"}, {"sequence": "TGTTTCAGCCATCAATCCGCGTTTTGGTGTCGCGTCGAATCGGAGTCACCTAGTGCAG", "binding signal": "3420 fluorescence intensity (a.u.)"}, {"sequence": "GCCGTGAACCAAAGCTCTTGCCGTGCTGTGCCGTGCCGGTCGGAGTCACCTAGTGCAG", "binding signal": "3220 fluorescence intensity (a.u.)"}, {"sequence": "CCATTCTTGTCCAACCCACTCTCGTCATATCCCATTGCCACGGAGTCACCTAGTGCAG", "binding signal": "3500 fluorescence intensity (a.u.)"}, {"sequence": "TGAAAATGGTGTTGGCATCATAAAATATTTAACCAACCCCCGGAGTCACCTAGTGCAG", "binding signal": "3150 fluorescence intensity (a.u.)"}, {"sequence": "CGCGCGTGCAAGGAGGCGTGAGGTGGGCAATTGGTCATTGCGGAGTCACCTAGTGCAG", "binding signal": "5110 fluorescence intensity (a.u.)"}, {"sequence": "AGTCAGCACCCTGTCACCTAACTAGCGTCGGTAATTAACACGGAGTCACCTAGTGCAG", "binding signal": "4030 fluorescence intensity (a.u.)"}, {"sequence": "TCTGACGGGTGGGCCCCAGTGGTCGCACACGTAAACCCTTCGGAGTCACCTAGTGCAG", "binding signal": "3610 fluorescence intensity (a.u.)"}, {"sequence": "TTATCAAGTTAATCTGATTAGCCACGTGCTGATTGATAAGCGGAGTCACCTAGTGCAG", "binding signal": "3940 fluorescence intensity (a.u.)"}, {"sequence": "GGCCCACGTGGGCCCACGCTGACTCAGCAGCCACGTAGGACGGAGTCACCTAGTGCAG", "binding signal": "14500 fluorescence intensity (a.u.)"}, {"sequence": "CTCGCCACGCCGACACGAACACGTGTACACGACGCGACGCCGGAGTCACCTAGTGCAG", "binding signal": "13300 fluorescence intensity (a.u.)"}, {"sequence": "ACTTTGATTCTTTCTGCCTCTGCGTACGTGCGTGAGAGAGCGGAGTCACCTAGTGCAG", "binding signal": "3470 fluorescence intensity (a.u.)"}, {"sequence": "ACAATTACTGTATTGTGCATATAAGCTGCATATCTATCACCGGAGTCACCTAGTGCAG", "binding signal": "39900 fluorescence intensity (a.u.)"}, {"sequence": "GATCTCAAGTCTACCCCTCTTTCGTCTTTCCCGATCCAAACGGAGTCACCTAGTGCAG", "binding signal": "3360 fluorescence intensity (a.u.)"}]}]}
